Literature values as cited in patent publication US10300143B2, “Compositions for treating cancer and methods for making the same” (THE BRIGHAM AND WOMEN'S HOSPITAL, INC., priority 2012, dated 2019).
At least one compound was matched to its structure with a doubt left.

Tested on: PI3K
Settings: cited from earlier work

For `O=c1cc(N2CCOCC2)oc2c(-c3ccccc3)cccc12` [LY294002], the PI3K inhibitory potency is listed as “weak inhibitor”.
